Measured values from patent US20190276511A1 (BIONTECH RNA PHARMACEUTICALS, published 2019).
No constants are given. Whether binding was seen depends on the method and setting. Some results given as binding are weak or reduced against the parent protein; the word gives no strength. For some of these results: Tags and fused reporters may be left off the sequences shown.

Protein sequences, listed by entry. Tags and fused reporters are not part of them. Lines headed by an entry give the natural chain unless they say otherwise; changes in a name come on top.
UniProt P25942: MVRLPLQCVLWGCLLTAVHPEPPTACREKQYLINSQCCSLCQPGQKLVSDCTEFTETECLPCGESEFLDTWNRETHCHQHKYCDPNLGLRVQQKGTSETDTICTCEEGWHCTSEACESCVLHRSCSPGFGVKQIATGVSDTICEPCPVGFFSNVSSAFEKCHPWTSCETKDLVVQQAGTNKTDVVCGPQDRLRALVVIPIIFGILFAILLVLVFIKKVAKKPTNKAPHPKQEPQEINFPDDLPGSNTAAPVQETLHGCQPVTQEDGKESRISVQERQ

Legend:
OX40-Fc [1] = biological target: T1, OX40-Fc (human, UniProt P43489 29-214); assay: flow cytometry, soluble receptor-Fc (10 nM) on cell-bound scDuokine
T1 construct: extracellular domain; hinge included for covalent assembly; also called OX40 receptor-Fc fusion protein; not shown: human Fc gamma 1 region including the hinge region
T1 sequence (looked up): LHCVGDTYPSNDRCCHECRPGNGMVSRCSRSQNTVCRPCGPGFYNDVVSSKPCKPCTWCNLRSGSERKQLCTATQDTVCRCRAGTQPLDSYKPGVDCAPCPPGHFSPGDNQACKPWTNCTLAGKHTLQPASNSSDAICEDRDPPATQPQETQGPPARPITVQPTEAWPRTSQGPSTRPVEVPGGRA

CD40-Fc [2] = biological target: T2, CD40-Fc (human, UniProt P25942 21-193); assay: as above
T2 construct: extracellular domain; hinge included for covalent assembly; also called CD40 receptor-Fc fusion protein; not shown: human Fc gamma 1 region including the hinge region

OX40 receptor on cells [3] = biological target: T3, OX40 receptor on cells (human, UniProt P43489 29-277); assay: flow cytometry, HT1080 transfectants, 100 nM
T3 sequence (looked up): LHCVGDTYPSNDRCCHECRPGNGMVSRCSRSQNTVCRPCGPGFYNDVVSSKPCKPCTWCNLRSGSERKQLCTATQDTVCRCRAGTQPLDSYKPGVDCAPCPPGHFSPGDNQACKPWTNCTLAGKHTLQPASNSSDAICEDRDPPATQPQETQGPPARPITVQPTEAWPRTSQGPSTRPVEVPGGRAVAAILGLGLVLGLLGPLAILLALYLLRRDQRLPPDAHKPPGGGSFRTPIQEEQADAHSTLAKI

CD40 receptor on cells [4] = biological target: T4, CD40 receptor on cells (human, UniProt P25942 21-277); assay: flow cytometry, HT1080 transfectants, 100 nM
OX40-Fc [5] = biological target: T1, OX40-Fc; assay: ELISA, 100 nM, immobilized receptor-Fc
CD40-Fc [6] = biological target: T2, CD40-Fc; assay: ELISA, 100 nM, immobilized receptor-Fc
CD40 receptor on cells [7] = biological target: T4, CD40 receptor on cells; assay: flow cytometry on human PBMC, 10 nM, FLAG detection; CD40 on B cells
OX40-Fc [8] = biological target: T1, OX40-Fc; assay: ELISA titration from 316 nM
CD40-Fc [9] = biological target: T2, CD40-Fc; assay: ELISA titration from 316 nM
OX40 receptor on cells [10] = biological target: T3, OX40 receptor on cells; assay: flow cytometry, receptor on HT1080 cells, second receptor-Fc for detection
CD40 receptor on cells [11] = biological target: T4, CD40 receptor on cells; assay: as above
OX40-Fc [12] = biological target: T1, OX40-Fc; assay: ELISA, coated receptor-Fc
CD40-Fc [13] = biological target: T2, CD40-Fc; assay: ELISA, coated receptor-Fc
CD27-Fc [14] = biological target: T5, CD27-Fc (human, UniProt P26842 20-191); assay: flow cytometry, soluble receptor-Fc (10 nM) on cell-bound scDuokine
T5 construct: extracellular domain; hinge included for covalent assembly; also called CD27 receptor-Fc fusion protein; not shown: human Fc gamma 1 region including the hinge region
T5 sequence (looked up): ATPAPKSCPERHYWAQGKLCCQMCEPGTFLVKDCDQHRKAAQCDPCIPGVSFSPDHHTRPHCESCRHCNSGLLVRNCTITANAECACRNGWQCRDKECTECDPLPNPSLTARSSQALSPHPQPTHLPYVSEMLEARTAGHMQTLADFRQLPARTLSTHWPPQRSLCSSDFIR

[15] = biological target: CD27 receptor on cells (human) (UniProt P26842); assay: flow cytometry, HT1080 transfectants, 100 nM
CD27-Fc [16] = biological target: T5, CD27-Fc; assay: ELISA, 100 nM, immobilized receptor-Fc
CD27-Fc [17] = biological target: T5, CD27-Fc; assay: ELISA titration from 316 nM
[18] = biological target: CD27 receptor on cells (human) (UniProt P26842); assay: flow cytometry, receptor on HT1080 cells, second receptor-Fc for detection
CD27-Fc [19] = biological target: T5, CD27-Fc; assay: ELISA, coated receptor-Fc
[20] = biological target: CD27 receptor on cells (human) (UniProt P26842); assay: flow cytometry on human PBMC, 10 nM, FLAG detection; CD27 on T cells
CD40 receptor on cells [21] = biological target: T4, CD40 receptor on cells; assay: flow cytometry on human PBMC, 10 nM, FLAG detection

Measured: binding

B1: scOX40L-scCD40L (ligand)
chain: QVSHRYPRIQSIKVQFTEYKKEKGFILTSQKEDEIMKVQNNSVIINCDGFYLISLKGYFSQEVNISLHYQKDEEPLFQLKKVRSVNSLMVASLTYKDKVYLNVTTDNTSLDDFHVNGGELILIHQNPGEFCVLGGGSGGGQVSHRYPRIQSIKVQFTEYKKEKGFILTSQKEDEIMKVQNNSVIINCDGFYLISLKGYFSQEVNISLHYQKDEEPLFQLKKVRSVNSLMVASLTYKDKVYLNVTTDNTSLDDFHVNGGELILIHQNPGEFCVLGGGSGGGQVSHRYPRIQSIKVQFTEYKKEKGFILTSQKEDEIMKVQNNSVIINCDGFYLISLKGYFSQEVNISLHYQKDEEPLFQLKKVRSVNSLMVASLTYKDKVYLNVTTDNTSLDDFHVNGGELILIHQNPGEFCVLGGGGSGGGTGGGGSGDQNPQIAAHVISEASSKTTSVLQWAEKGYYTMSNNLVTLENGKQLTVKRQGLYYIYAQVTFCSNREASSQAPFIASLCLKSPGRFERILLRAANTHSSAKPCGQQSIHLGGVFELQPGASVFVNVTDPSQVSHGTGFTSFGLLKLGGGSGGGGDQNPQIAAHVISEASSKTTSVLQWAEKGYYTMSNNLVTLENGKQLTVKRQGLYYIYAQVTFCSNREASSQAPFIASLCLKSPGRFERILLRAANTHSSAKPCGQQSIHLGGVFELQPGASVFVNVTDPSQVSHGTGFTSFGLLKLGGGSGGGGDQNPQIAAHVISEASSKTTSVLQWAEKGYYTMSNNLVTLENGKQLTVKRQGLYYIYAQVTFCSNREASSQAPFIASLCLKSPGRFERILLRAANTHSSAKPCGQQSIHLGGVFELQPGASVFVNVTDPSQVSHGTGFTSFGLLKL
notes: scDuokine from HEK293, FLAG-purified; VH leader left out; also called single-chain Duokine scOX40L-scCD40L; not shown: N-terminal FLAG tag
binds: OX40-Fc [1] | CD40-Fc [2] | OX40 receptor on cells [3] | CD40 receptor on cells [4] | OX40-Fc [5] | CD40-Fc [6] | CD40 receptor on cells [7] | OX40-Fc [8] | CD40-Fc [9] | OX40 receptor on cells [10] | CD40 receptor on cells [11] | OX40-Fc [12] | CD40-Fc [13]

B2: scOX40L-scCD27L (ligand)
chain: QVSHRYPRIQSIKVQFTEYKKEKGFILTSQKEDEIMKVQNNSVIINCDGFYLISLKGYFSQEVNISLHYQKDEEPLFQLKKVRSVNSLMVASLTYKDKVYLNVTTDNTSLDDFHVNGGELILIHQNPGEFCVLGGGSGGGQVSHRYPRIQSIKVQFTEYKKEKGFILTSQKEDEIMKVQNNSVIINCDGFYLISLKGYFSQEVNISLHYQKDEEPLFQLKKVRSVNSLMVASLTYKDKVYLNVTTDNTSLDDFHVNGGELILIHQNPGEFCVLGGGSGGGQVSHRYPRIQSIKVQFTEYKKEKGFILTSQKEDEIMKVQNNSVIINCDGFYLISLKGYFSQEVNISLHYQKDEEPLFQLKKVRSVNSLMVASLTYKDKVYLNVTTDNTSLDDFHVNGGELILIHQNPGEFCVLGGGGSGGGTGGGGSSLGWDVAELQLNHTGPQQDPRLYWQGGPALGRSFLHGPELDKGQLRIHRDGIYMVHIQVTLAICSSTTASRHHPTTLAVGICSPASRSISLLRLSFHQGCTIASQRLTPLARGDTLCTNLTGTLLPSRNTDETFFGVQWVRPGGGSGGGSLGWDVAELQLNHTGPQQDPRLYWQGGPALGRSFLHGPELDKGQLRIHRDGIYMVHIQVTLAICSSTTASRHHPTTLAVGICSPASRSISLLRLSFHQGCTIASQRLTPLARGDTLCTNLTGTLLPSRNTDETFFGVQWVRPGGGSGGGSLGWDVAELQLNHTGPQQDPRLYWQGGPALGRSFLHGPELDKGQLRIHRDGIYMVHIQVTLAICSSTTASRHHPTTLAVGICSPASRSISLLRLSFHQGCTIASQRLTPLARGDTLCTNLTGTLLPSRNTDETFFGVQWVRP
notes: scDuokine from HEK293, FLAG-purified; VH leader left out; also called single-chain Duokine scOX40L-scCD27L; not shown: N-terminal FLAG tag
binds: OX40-Fc [1] | CD27-Fc [14] | [15] | OX40 receptor on cells [3] | OX40-Fc [5] | CD27-Fc [16] | OX40-Fc [8] | CD27-Fc [17] | [18] | OX40 receptor on cells [10] | OX40-Fc [12] | CD27-Fc [19] | [20]

B3: scCD40L-scCD27L (ligand)
chain: GDQNPQIAAHVISEASSKTTSVLQWAEKGYYTMSNNLVTLENGKQLTVKRQGLYYIYAQVTFCSNREASSQAPFIASLCLKSPGRFERILLRAANTHSSAKPCGQQSIHLGGVFELQPGASVFVNVTDPSQVSHGTGFTSFGLLKLGGGSGGGGDQNPQIAAHVISEASSKTTSVLQWAEKGYYTMSNNLVTLENGKQLTVKRQGLYYIYAQVTFCSNREASSQAPFIASLCLKSPGRFERILLRAANTHSSAKPCGQQSIHLGGVFELQPGASVFVNVTDPSQVSHGTGFTSFGLLKLGGGSGGGGDQNPQIAAHVISEASSKTTSVLQWAEKGYYTMSNNLVTLENGKQLTVKRQGLYYIYAQVTFCSNREASSQAPFIASLCLKSPGRFERILLRAANTHSSAKPCGQQSIHLGGVFELQPGASVFVNVTDPSQVSHGTGFTSFGLLKLGGGGSGGGTGGGGSSLGWDVAELQLNHTGPQQDPRLYWQGGPALGRSFLHGPELDKGQLRIHRDGIYMVHIQVTLAICSSTTASRHHPTTLAVGICSPASRSISLLRLSFHQGCTIASQRLTPLARGDTLCTNLTGTLLPSRNTDETFFGVQWVRPGGGSGGGSLGWDVAELQLNHTGPQQDPRLYWQGGPALGRSFLHGPELDKGQLRIHRDGIYMVHIQVTLAICSSTTASRHHPTTLAVGICSPASRSISLLRLSFHQGCTIASQRLTPLARGDTLCTNLTGTLLPSRNTDETFFGVQWVRPGGGSGGGSLGWDVAELQLNHTGPQQDPRLYWQGGPALGRSFLHGPELDKGQLRIHRDGIYMVHIQVTLAICSSTTASRHHPTTLAVGICSPASRSISLLRLSFHQGCTIASQRLTPLARGDTLCTNLTGTLLPSRNTDETFFGVQWVRP
notes: scDuokine from HEK293, FLAG-purified; VH leader left out; also called single-chain Duokine scCD40L-scCD27L; not shown: N-terminal FLAG tag
binds: CD27-Fc [14] | CD40-Fc [2] | [15] | CD40 receptor on cells [4] | CD27-Fc [16] | CD40-Fc [6] | CD40 receptor on cells [7] | CD27-Fc [17] | CD40-Fc [9] | [18] | CD40 receptor on cells [11] | CD40 receptor on cells [21] | CD27-Fc [19] | CD40-Fc [13]
